Test results from article PMC2958826.
No constants are given. Whether binding was seen depends on the method and setting. Binding seen in cells or lysates may run through a third protein. Some entries that bind do so weakly or less than the wild type. For part of these data: Where a sequence is shown, tags or fusion partners need not be part of it.

By UniProt entry, the sequences of proteins in these tests, tags left out. Where a name states a change or a piece, a line headed by the entry shows the natural chain unless it says otherwise. Chains listed by the source or under a name are the forms on record and can include a tag or linker.
UniProt Q96EB6: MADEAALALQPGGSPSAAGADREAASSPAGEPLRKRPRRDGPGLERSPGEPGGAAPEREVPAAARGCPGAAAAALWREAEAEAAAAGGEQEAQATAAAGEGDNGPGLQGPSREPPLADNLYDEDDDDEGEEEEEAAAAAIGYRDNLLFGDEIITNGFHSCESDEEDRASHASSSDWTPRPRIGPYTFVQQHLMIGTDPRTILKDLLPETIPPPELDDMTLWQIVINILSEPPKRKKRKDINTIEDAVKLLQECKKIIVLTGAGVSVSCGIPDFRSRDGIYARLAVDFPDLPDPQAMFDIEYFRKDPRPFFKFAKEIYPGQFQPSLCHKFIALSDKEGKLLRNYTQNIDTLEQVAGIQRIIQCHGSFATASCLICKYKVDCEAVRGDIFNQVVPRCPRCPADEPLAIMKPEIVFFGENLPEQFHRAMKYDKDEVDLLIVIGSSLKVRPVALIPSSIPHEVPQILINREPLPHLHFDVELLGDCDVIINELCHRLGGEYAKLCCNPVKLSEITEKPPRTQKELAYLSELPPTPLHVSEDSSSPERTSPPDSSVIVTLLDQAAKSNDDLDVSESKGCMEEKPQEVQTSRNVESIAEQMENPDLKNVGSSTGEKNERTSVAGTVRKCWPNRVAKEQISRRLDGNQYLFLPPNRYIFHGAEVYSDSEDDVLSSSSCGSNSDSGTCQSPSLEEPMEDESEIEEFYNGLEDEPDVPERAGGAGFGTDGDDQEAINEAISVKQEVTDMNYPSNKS
SIRT1-ΔExon8 (Myc/His-tagged) (Q96EB6-2, form named): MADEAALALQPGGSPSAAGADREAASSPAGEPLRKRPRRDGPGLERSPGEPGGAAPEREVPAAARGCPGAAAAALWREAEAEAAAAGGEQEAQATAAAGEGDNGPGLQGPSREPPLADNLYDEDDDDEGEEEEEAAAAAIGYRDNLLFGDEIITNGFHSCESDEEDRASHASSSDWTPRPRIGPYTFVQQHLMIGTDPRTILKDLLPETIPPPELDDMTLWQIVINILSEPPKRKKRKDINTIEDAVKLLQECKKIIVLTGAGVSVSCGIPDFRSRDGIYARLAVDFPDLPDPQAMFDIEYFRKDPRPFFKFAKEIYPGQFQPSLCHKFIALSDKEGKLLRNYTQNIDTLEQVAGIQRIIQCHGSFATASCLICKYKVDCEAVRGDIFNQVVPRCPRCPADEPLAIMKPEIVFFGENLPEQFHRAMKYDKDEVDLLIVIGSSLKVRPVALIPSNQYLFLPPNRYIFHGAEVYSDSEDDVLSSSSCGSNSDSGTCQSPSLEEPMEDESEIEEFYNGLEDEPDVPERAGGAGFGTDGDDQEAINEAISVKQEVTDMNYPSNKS

Legend:
[1] = target: SIRT1-ΔExon8 (Myc/His-tagged) (human) (UniProt Q96EB6); assay: co-IP; Myc-SIRT1-ΔExon8 expressed in HCT116 cells; lysates immunoprecipitated with anti-c-Myc (Pierce Mammalian c-Myc Tag IP/Co-IP kit); Western blot of eluates for endogenous partners
[2] = target: SIRT1-ΔExon8 (Myc/His-tagged) (human) (UniProt Q96EB6); assay: pull-down; affinity purification of the His-tag of Myc/His-SIRT1-ΔExon8 expressed in HCT116 cells; eluates probed by Western blot with anti-c-Myc and a C-terminal SIRT1 antibody (residues 448-747)
[3] = target: T1, Flag-tagged human AROS (Active Regulator Of SIRT1) (human) (UniProt Q86WX3); assay: co-IP; Myc-SIRT1-ΔExon8 and Flag-AROS co-expressed in HCT116 cells; Flag epitope immunoprecipitated (Sigma FLAGIPT1), eluted with FLAG peptide; blot with anti-c-Myc
T1 sequence: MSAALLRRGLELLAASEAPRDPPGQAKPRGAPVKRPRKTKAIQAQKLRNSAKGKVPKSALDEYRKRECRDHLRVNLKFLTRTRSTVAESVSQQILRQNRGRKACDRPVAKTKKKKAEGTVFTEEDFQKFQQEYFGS

binding [1]	binding [2]	binding [3]	Substance
no binding	no binding	–	SIRT1-Full-Length (endogenous) (from UniProt Q96EB6-1 1-747)
–	–	binds	SIRT1-ΔExon8 (Myc/His-tagged) (from UniProt Q96EB6-2 1-561)
